Experimental findings from US20030236306A1, “Stabilized formulations of alpha adrenergic receptor antagonists and the uses thereof” (priority 2002, published 2003) are described below.

The data set in a line: Effect of buffer anion on stability, pH 3, 60° C. Format: physicochemical. As for the experimental part: The drug is monitored at a detection wavelength of 232 nm.
Tightly sealed glass vials containing the test solutions were placed in an oven at 40° C. or 60° C. All samples were stored in the dark. Aliquots were removed at designated time points for HPLC analysis and pH measurement.
The test buffers included 50 mM sodium phosphate, 50 mM sodium acetate, 50 mM sodium lactate, 50 mM sodium citrate, and 50 mM sodium succinate buffers at pH 3.
The phosphate and acetate buffers were prepared as described above. The citrate buffer was prepared by adding 9.60 g of citric acid to water, adjusting the pH with 2 N NaOH to pH 3, and bringing the volume to 1 L in a volumetric flask. The lactate buffer was prepared by adding 2.25 g of lactic acid to water, adjusting the pH with 2 N NaOH to pH 3, and bringing the volume to 1L in a volumetric flask. The succinate buffer was prepared by adding 2.95 g succinic acid to water, adjusting the pH with 2 N NaOH to pH 3, and bringing the volume to 1 L in a volumetric flask.
Measurements of sample pH were done after HPLC analysis.

The source gives many values for each of these; only a part stands here.

As to `Cc1ccc(N(CC2=NCCN2)c2cccc(O)c2)cc1` [Phentolamine, phentolamine], the “Phentolamine Purity” value (50 mM Citrate (sodium salt) pH 3.0, 60° C., Day 0) is recorded as 97 % peak area; the “Phentolamine Purity” value (50 mM Citrate (sodium salt) pH 3.0, 60° C., Day 2) was 91 % peak area; the “Phentolamine Purity” value (50 mM Citrate (sodium salt) pH 3.0, 60° C., Day 7) is on record as 77 % peak area; the “Phentolamine Purity” value (50 mM Citrate (sodium salt) pH 3.0, 60° C., Day 14) is given as 69 % peak area; the “Phentolamine Purity” value (50 mM Lactate (sodium salt) pH 3.0, 60° C., Day 0) is 99 % peak area; the “Phentolamine Purity” value (50 mM Lactate (sodium salt) pH 3.0, 60° C., Day 2) came to 98 % peak area. In addition, the “Phentolamine Purity” value reads like this: (50 mM Lactate (sodium salt) pH 3.0, 60° C., Day 7) 94 % peak area; (50 mM Lactate (sodium salt) pH 3.0, 60° C., Day 14) 89 % peak area; (50 mM Succinate (sodium salt) pH 3.0, 60° C., Day 0) 99 % peak area; (50 mM Succinate (sodium salt) pH 3.0, 60° C., Day 2) 92 % peak area; (50 mM Succinate (sodium salt) pH 3.0, 60° C., Day 7) 78 % peak area; (50 mM Succinate (sodium salt) pH 3.0, 60° C., Day 14) 74 % peak area.
